Measured values taken from PMC7532188.
No constants are given. Whether binding was seen depends on the method and setting. Binding seen in cells or lysates may run through a third protein. One block for each binder: values may come before it.

Protein sequences, listed by entry. Tags and fused reporters are not part of them. Lines headed by an entry give the natural chain unless they say otherwise; changes in a name come on top.
UniProt Q8NEY8: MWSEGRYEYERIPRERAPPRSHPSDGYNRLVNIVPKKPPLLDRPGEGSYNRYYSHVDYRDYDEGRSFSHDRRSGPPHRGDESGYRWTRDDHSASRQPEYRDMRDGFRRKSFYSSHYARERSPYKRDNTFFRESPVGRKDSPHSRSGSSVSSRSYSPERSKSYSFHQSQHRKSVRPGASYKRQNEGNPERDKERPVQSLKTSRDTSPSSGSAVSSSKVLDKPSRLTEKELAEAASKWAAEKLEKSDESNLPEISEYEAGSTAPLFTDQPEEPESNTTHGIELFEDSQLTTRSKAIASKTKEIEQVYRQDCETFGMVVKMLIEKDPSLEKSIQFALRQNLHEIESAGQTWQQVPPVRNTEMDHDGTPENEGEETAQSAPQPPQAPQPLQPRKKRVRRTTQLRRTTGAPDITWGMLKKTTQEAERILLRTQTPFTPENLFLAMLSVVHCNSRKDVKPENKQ

Target: endogenous Periphilin (human (endogenous in TASOR KO cells)) (UniProt Q8NEY8)
Assay: co-IP; endogenous Periphilin immunoprecipitated, blot for mCherry-tagged TASOR constructs; lysis in 1% NP-40 in TBS with benzonase

binding: no binding
B1: mCherry-TASOR(1-636) (domain or fragment, UniProt Q9UK61-1 1-636)
chain: MATAVETEACQPTDASWESGGGGDDEMKQALPELESSQQNGGGGGLNIAEPSGGAGREENAGAEAAQSLSHEQPQDSSEAGAAALPRGPEEPERPVRRSFQIPRKSREKKALFQPLTPGSREFEDVVNILHSSYLEPTSVTNFNYRRACLVHNELLEKEFTEKRRELKFDGRLDKELSESYAFLMVDRYQVQTICEKGLHVGQSKITILGSPSMGVYLSRYADLLQANPLDTGAMGDVVIFKIMKGKIKSIYDPMGVKSLESMLNKSALDPTPKHECHVSKNANRITSLLAYRAYELTQYYFYEYGFDELRRRPRHVCPYAVVSFTYKDDIQTPKFVPSSRSNSFNTDRNIDKYNYTLWKGQLLNKGKLLCYISLRSATRAFLPIKLPEKLDVETVMSIDHLKQKIPPALFYKETYLGPNEVLKNGMYCSLYEVVEKTRIGSNMESLLQKLDREKLVLVKPLGDRGYLFLLSPYQMVPPYEYQTAKSRVLHALFLFQEPRSIVTSQKGSTNAAPQERHESMPDVLKIAQFLQFSLIQCRKEFKNISAINFHSVVEKYVSEFFKRGFGSGKREFIMFPYDSRLDDKKFLYSAPRNKSHIDTCLHAYIFRPEVYQLPICKLKELFEENRKLQQFSPLS

binding: no binding
B2: mCherry-TASOR(1–1000) (domain or fragment, UniProt Q9UK61-1 1-1000)
chain: MATAVETEACQPTDASWESGGGGDDEMKQALPELESSQQNGGGGGLNIAEPSGGAGREENAGAEAAQSLSHEQPQDSSEAGAAALPRGPEEPERPVRRSFQIPRKSREKKALFQPLTPGSREFEDVVNILHSSYLEPTSVTNFNYRRACLVHNELLEKEFTEKRRELKFDGRLDKELSESYAFLMVDRYQVQTICEKGLHVGQSKITILGSPSMGVYLSRYADLLQANPLDTGAMGDVVIFKIMKGKIKSIYDPMGVKSLESMLNKSALDPTPKHECHVSKNANRITSLLAYRAYELTQYYFYEYGFDELRRRPRHVCPYAVVSFTYKDDIQTPKFVPSSRSNSFNTDRNIDKYNYTLWKGQLLNKGKLLCYISLRSATRAFLPIKLPEKLDVETVMSIDHLKQKIPPALFYKETYLGPNEVLKNGMYCSLYEVVEKTRIGSNMESLLQKLDREKLVLVKPLGDRGYLFLLSPYQMVPPYEYQTAKSRVLHALFLFQEPRSIVTSQKGSTNAAPQERHESMPDVLKIAQFLQFSLIQCRKEFKNISAINFHSVVEKYVSEFFKRGFGSGKREFIMFPYDSRLDDKKFLYSAPRNKSHIDTCLHAYIFRPEVYQLPICKLKELFEENRKLQQFSPLSDYEGQEEEMNGTKMKFGKRNNSRGEAIISGKQRSSHSLDYDKDRVKELINLIQCRKKSVGGDSDTEDMRSKTVLKRKLEDLPENMRKLAKTSNLSENCHLYEESPQPIGSLGHDADLRRQQQDTCNSGIADIHRLFNWLSETLANARHSDASLTDTVNKALGLSTDDAYEELRQKHEYELNSTPDKKDYEQPTCAKVENAQFKGTQSLLLEVDATSKYSVAISTSEVGTDHKLHLKEDPNLISVNNFEDCSLCPSVPIEHGFRRQQSKSNNVEETEIHWKLIPITGGNARSPEDQLGKHGEKQTPGMKSPEEQLVCVPPQEAFPNDPRVINRQRSSDYQFPSSPFTDTLKGTTEDDVLTGQVEE
